Results are given in words; binding and its absence hold for the method and conditions named. Some binding calls cover weakened binding; strength is not graded here. For some of these results: Where a sequence is shown, tags or fusion partners need not be part of it.

These results are taken from article PMC2935968.

Experiment [1] deals with Hsp90 (not stated (Arabidopsis, H. vulgare or T. aestivum constructs)) (UniProt Q7XJ80). Put plainly: pull-down; GST-Sgt1 as bait, Hsp90 and a Rar1 construct or mutant both present; both purified.
Experiment [2] deals with T1, GST-Rar1 (wild type) (Arabidopsis thaliana), Q9SE33.
T1 chain: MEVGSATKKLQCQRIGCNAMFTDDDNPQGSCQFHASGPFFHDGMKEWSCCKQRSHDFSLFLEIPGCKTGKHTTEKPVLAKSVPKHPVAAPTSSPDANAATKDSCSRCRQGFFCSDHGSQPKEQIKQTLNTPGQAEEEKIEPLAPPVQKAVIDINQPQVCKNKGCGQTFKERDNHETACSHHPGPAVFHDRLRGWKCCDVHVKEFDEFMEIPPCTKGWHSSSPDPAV
Put plainly: pull-down; GST-Rar1 as bait, Hsp90, untagged Rar1 and Sgt1-CS present; both purified. As to conditions: remark: other sources report otherwise.

The target of experiment [3] is T1, GST-Rar1 (wild type) (Arabidopsis …). Put plainly: pull-down; GST-Rar1 as bait, Hsp90, increasing amounts of untagged Rar1 in competition; both purified. As to conditions: remark: other sources report otherwise.
Experiment [4] concerns the target Hsp90 (not stated (Arabidopsis, H. vulgare or T. aestivum constructs)) (UniProt Q7XJ80). The experiment is described as above.
Substrate in experiment [5]: T2, CS domain of cress (Arabidopsis thaliana) Sgt1a (Arabidopsis thaliana) (UniProt Q9SUR9)
T2 sequence: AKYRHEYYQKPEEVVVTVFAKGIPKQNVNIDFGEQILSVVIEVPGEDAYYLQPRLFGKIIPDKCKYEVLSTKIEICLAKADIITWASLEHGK
As to the kind of experiment: crystal structure; Hsp90 N domain, Sgt1a CS domain and Rar1 CHORDII domain combined 1:1:1 with 5 mM ADP; crystals at 20°C from 100 mM HEPES pH 7.5, 23% w/v PEG5000 MME; heterohexameric ring; 2.2 Å; both purified.

B1: Rar1 I153Q (prey of GST-Sgt1) (protein, UniProt Q9SE33 1-226)
chain: MEVGSATKKLQCQRIGCNAMFTDDDNPQGSCQFHASGPFFHDGMKEWSCCKQRSHDFSLFLEIPGCKTGKHTTEKPVLAKSVPKHPVAAPTSSPDANAATKDSCSRCRQGFFCSDHGSQPKEQIKQTLNTPGQAEEEKIEPLAPPVQKAVIDQNQPQVCKNKGCGQTFKERDNHETACSHHPGPAVFHDRLRGWKCCDVHVKEFDEFMEIPPCTKGWHSSSPDPAV
B1: the binding entry in experiment [1] was “binds”.

B2: Rar1 E170K (prey of GST-Sgt1) (protein, UniProt Q9SE33 1-226)
chain: MEVGSATKKLQCQRIGCNAMFTDDDNPQGSCQFHASGPFFHDGMKEWSCCKQRSHDFSLFLEIPGCKTGKHTTEKPVLAKSVPKHPVAAPTSSPDANAATKDSCSRCRQGFFCSDHGSQPKEQIKQTLNTPGQAEEEKIEPLAPPVQKAVIDINQPQVCKNKGCGQTFKKRDNHETACSHHPGPAVFHDRLRGWKCCDVHVKEFDEFMEIPPCTKGWHSSSPDPAV
On to B2, for which the binding result in experiment [1] is reported as “binds”.

B3: Rar1 (wild type, not GST-tagged), Q9SE33 1-226 (protein)
chain: MEVGSATKKLQCQRIGCNAMFTDDDNPQGSCQFHASGPFFHDGMKEWSCCKQRSHDFSLFLEIPGCKTGKHTTEKPVLAKSVPKHPVAAPTSSPDANAATKDSCSRCRQGFFCSDHGSQPKEQIKQTLNTPGQAEEEKIEPLAPPVQKAVIDINQPQVCKNKGCGQTFKERDNHETACSHHPGPAVFHDRLRGWKCCDVHVKEFDEFMEIPPCTKGWHSSSPDPAV
For B3, the binding result in experiment [2] and in experiment [3] was “no binding” each time.

B4: Rar1 (wild type, not GST-tagged) (protein, UniProt Q9SE33 1-226)
chain: MEVGSATKKLQCQRIGCNAMFTDDDNPQGSCQFHASGPFFHDGMKEWSCCKQRSHDFSLFLEIPGCKTGKHTTEKPVLAKSVPKHPVAAPTSSPDANAATKDSCSRCRQGFFCSDHGSQPKEQIKQTLNTPGQAEEEKIEPLAPPVQKAVIDINQPQVCKNKGCGQTFKERDNHETACSHHPGPAVFHDRLRGWKCCDVHVKEFDEFMEIPPCTKGWHSSSPDPAV
As for B4, in experiment [4], the binding entry was “binds”.

B5: Rar1 W217T (prey of GST-Sgt1) (protein, UniProt Q9SE33 1-226)
chain: MEVGSATKKLQCQRIGCNAMFTDDDNPQGSCQFHASGPFFHDGMKEWSCCKQRSHDFSLFLEIPGCKTGKHTTEKPVLAKSVPKHPVAAPTSSPDANAATKDSCSRCRQGFFCSDHGSQPKEQIKQTLNTPGQAEEEKIEPLAPPVQKAVIDINQPQVCKNKGCGQTFKERDNHETACSHHPGPAVFHDRLRGWKCCDVHVKEFDEFMEIPPCTKGTHSSSPDPAV
On to B5, for which, in experiment [1], the binding result is given as “binds”.

B6: CHORDII domain of cress (Arabidopsis thaliana) Rar1 (domain or fragment, UniProt Q9SE33 149-221)
chain: AVIDINQPQVCKNKGCGQTFKERDNHETACSHHPGPAVFHDRLRGWKCCDVHVKEFDEFMEIPPCTKGWHSSS
In the case of B6, the binding entry in experiment [5] is “binds”.
